Data reported in PubChem BioAssay AID338 (DTP/NCI, 2004).
The list does not hold the whole screen: it is rich in T/C values a quarter to a half above the control, in often repeated tests (any T/C) and in doses without a T/C. Other doses and runs of a compound stand elsewhere. T/C: endpoint of the treated group in % of that of the vehicle group. Some entries give survivors of the animals treated and no T/C: the source files T/C as zero there, which appears to mark a toxic dose or a test without result, not a measured value. Some survivor counts are full or nearly so, which does not show that the dose was tolerated: survival well below the control is almost never listed, so the zero probably covers shortened survival too. Survivors were counted at the toxicity check, usually on the fifth day, unless a day is given; later deaths do not show. Schedules are NCI's codes, taken here to give the interval after Q, in days (D) or hours (H), and the number of doses after X. Some doses were run more than once; their values stand side by side, smallest first. For survival time, this PubChem deposit counts one and a half times the control or more as active, and values a quarter to a half above the control carry no call in these data; other NCI protocols may use other cut-offs. Some schedule codes hold Z or #, which are not explained here. Some T/C values carry the count of animals alive at the toxicity check (mostly the fifth day); without a count, all were alive then. Brackets with × count equal records among those shown.

Test system: BDF1 mice, P388 leukemia (terephthalanilide-resistant), survival T/C
Experiment: NCI In Vivo Anticancer Drug Screen. Data for tumor model P388 Leukemia resistant to A Terephthalanilide; NSC 38280 (intraperitoneal) in B6D2F1 (BDF1) mice
Conditions: T/C endpoint: median survival time, higher T/C = longer survival
Method: The antitumor activity of compounds was measured in mice bearing transplantable tumors. Survival or tumor size were measured and the results are expressed as the measurement made in the treated group (T) divided by the measurement made in the vehicle treated control group (C). The tumor model used in this assay is P388 Leukemia resistant to A Terephthalanilide; NSC 38280 (intraperitoneal) in B6D2F1 (BDF1) mice

[1] = dose: 250.0 mg/kg/injection, schedule: Q01DX010 (ip), vehicle: saline
[2] = dose: 125.0 mg/kg/injection, schedule: Q01DX010 (ip), vehicle: saline
[3] = dose: 3.0 mg/kg/injection, schedule: Q01DX010 (ip), vehicle: saline
[4] = dose: 120.0 mg/kg/injection, schedule: Q01DX010 (ip), vehicle: saline
[5] = dose: 4.0 mg/kg/injection, schedule: Q01DX010 (ip), vehicle: saline
[6] = dose: 8.0 mg/kg/injection, schedule: Q01DX010 (ip), vehicle: saline
[7] = dose: 16.0 mg/kg/injection, schedule: Q01DX010 (ip), vehicle: saline
[8] = dose: 5.0 mg/kg/injection, schedule: Q01DX010 (ip), vehicle: saline
[9] = dose: 10.0 mg/kg/injection, schedule: Q01DX010 (ip), vehicle: saline
[10] = dose: 20.0 mg/kg/injection, schedule: Q01DX010 (ip), vehicle: saline
[11] = dose: 40.0 mg/kg/injection, schedule: Q01DX010 (ip), vehicle: saline
[12] = dose: 50.0 mg/kg/injection, schedule: Q01DX010 (ip), vehicle: saline
[13] = dose: 100.0 mg/kg/injection, schedule: Q01DX010 (ip), vehicle: saline
[14] = dose: 31.3 mg/kg/injection, schedule: Q01DX010 (ip), vehicle: saline
[15] = dose: 45.0 mg/kg/injection, schedule: Q01DX010 (ip), vehicle: saline

S=c1nc[nH]c2nc[nH]c12
T/C (dose: 40.0 mg/kg/injection, schedule: Q01DX Z (ip), vehicle: saline): 127 % of control
T/C (dose: 80.0 mg/kg/injection, schedule: Q01DX010 (ip), vehicle: alkali diluted with saline): 133 % of control
T/C (dose: 80.0 mg/kg/injection, schedule: Q01DX Z (ip), vehicle: saline): 127 % of control

O=C(Nc1ccc(C2=NCCN2)cc1)c1ccc(C(=O)Nc2ccc(C3=NCCN3)cc2)cc1
T/C (dose: 112.0 mg/kg/injection, schedule: Q01DX010 (ip), vehicle: saline): 133 % of control
T/C [1]: 127 % of control

CCCCNc1ncnc2c1cnn2C
survivor count [2]: 6 of 6
survivor count [1]: 0 of 6

Nc1nc(N)c2nc(CNc3ccc(C(=O)NC(CCC(=O)O)C(=O)O)cc3)cnc2n1 (configuration not stated)
T/C (dose: 100.0 micrograms/kg/injection, schedule: Q01DX010 (ip), vehicle: other): 125 % of control

O=P1(N(CCCl)CCCl)NCCCO1 (configuration not stated)
T/C (dose: 22.5 mg/kg/injection, schedule: Q01DX010 (ip), vehicle: saline): 138 % of control
T/C (dose: 90.0 mg/kg/injection, schedule: Q01DX005 (ip), vehicle: saline): 145 % of control
survivor count (dose: 180.0 mg/kg/injection, schedule: Q01DX005 (ip), vehicle: saline): 6 of 6

CCCNc1ncnc2[nH]ncc12
survivor count (dose: 6.25 mg/kg/injection, schedule: Q01DX010 (ip), vehicle: saline): 6 of 6

CN(C)c1ccc(/C=C\c2ccnc3ccccc23)cc1
survivor count [3]: 6 of 6
survivor count (dose: 6.0 mg/kg/injection, schedule: Q01DX010 (ip), vehicle: saline): 6 of 6

N#CCSc1ncnc2nc[nH]c12
survivor count [4]: 0 of 6

Nc1nc(=S)c2ncn(C3OC(CO)C(O)C3O)c2[nH]1 (configuration not stated)
T/C (dose: 2.0 mg/kg/injection, schedule: Q01DX010 (ip), vehicle: saline): 140 % of control
T/C [5]: 125 % of control
survivor count [6]: 6 of 6
survivor count [7]: 6 of 6

Nc1ncnc2[nH]ncc12
survivor count [3]: 6 of 6

OCC1OC(n2cnc3c(=S)nc[nH]c32)C(O)C1O (configuration not stated)
survivor count (dose: 80.0 mg/kg/injection, schedule: Q01DX010 (ip), vehicle: saline): 6 of 6
T/C (dose: 160.0 mg/kg/injection, schedule: Q01DX010 (ip), vehicle: saline): 138 % of control

O=C(O)CCCc1ccc(N(CCCl)CCCl)cc1
survivor count (dose: 25.0 mg/kg/injection, schedule: Q01DX010 (ip), vehicle: saline): 0 of 6 and 4 of 6

CN(Cc1cnc2nc(N)nc(N)c2n1)c1ccc(C(=O)N[C@@H](CCC(=O)O)C(=O)O)cc1
T/C (dose: 0.19 mg/kg/injection, schedule: Q01DX Z (ip), vehicle: saline): 131 and 136 % of control
T/C (dose: 0.38 mg/kg/injection, schedule: Q01DX010 (ip), vehicle: other): 144 % of control

CN(C)c1ccc(Nc2c3ccccc3nc3ccccc23)cc1
survivor count [4]: 6 of 6

O=C(Nc1ccc(C2=NCCN2)cc1)c1ccc(C(=O)Nc2ccc(C3=NCCN3)cc2)c([N+](=O)[O-])c1
T/C (dose: 12.0 mg/kg/injection, schedule: Q01DX010 (ip), vehicle: saline): 125 % of control

O=C(Nc1ccc(NC(=O)Nc2ccc(C3=NCCN3)cc2)cc1)Nc1ccc(C2=NCCN2)cc1
T/C (dose: 165.0 mg/kg/injection, schedule: Q01DX010 (ip), vehicle: saline): 127 % of control
T/C [1]: 138 % of control
T/C (dose: 375.0 mg/kg/injection, schedule: Q01DX010 (ip), vehicle: saline): 138 % of control

Cc1cc(N(CCCl)CCCl)ccc1N=Nc1ccccc1C(=O)O
T/C [8]: 130 % of control
T/C [9]: 125 and 127 % of control
T/C [10]: 135 and 144 % of control
survivor count [11]: 6 of 6

CNc1nc(Nc2ccc(C3=NCCN3)cc2)nc(Nc2ccc(C3=NCCN3)cc2)n1
T/C (dose: 13.3 mg/kg/injection, schedule: Q01DX010 (ip), vehicle: saline): 140 % of control
T/C (dose: 15.0 mg/kg/injection, schedule: Q01DX010 (ip), vehicle: saline): 140 % of control
T/C (dose: 30.0 mg/kg/injection, schedule: Q01DX010 (ip), vehicle: saline): 140 % of control

CCN(CC)CCNc1ccc(C)c2sc3ccccc3c(=O)c12
T/C [12]: 126 and 133 % of control
T/C [13]: 127 % of control
survivor count (dose: 200.0 mg/kg/injection, schedule: Q01DX010 (ip), vehicle: saline): 6 of 6

O=C1CCC(N2C(=O)c3ccccc3C2=O)C(=O)N1 (configuration not stated)
T/C [14]: 131 % of control

O=NN(CCCl)C(=O)NCCCl
survivor count [12]: 5 of 6 and 6 of 6

O=C(Nc1ccc(C2=NCCN2)cc1)c1cccc(C(=O)Nc2ccc(C3=NCCN3)cc2)c1
T/C [7]: 125 % of control
T/C (dose: 32.0 mg/kg/injection, schedule: Q01DX010 (ip), vehicle: saline): 137 % of control

CN(C)c1ccc(/C=C/c2ccnc3ccccc23)cc1
survivor count [11]: 5 of 6

COc1cc(-c2ccc(Nc3ccccc3C(=O)O)c(OC)c2)ccc1Nc1ccccc1C(=O)O
T/C [15]: 129 and 136 % of control
T/C (dose: 67.0 mg/kg/injection, schedule: Q01DX010 (ip), vehicle: saline): 141 % of control
T/C [13]: 129 % of control
survivor count (dose: 150.0 mg/kg/injection, schedule: Q01DX010 (ip), vehicle: saline): 1 of 6 and 5 of 6

CS(=O)(=O)OCCCCOS(C)(=O)=O
survivor count [12]: 4 of 6

CS(=O)(=O)OCCN(CCOS(C)(=O)=O)c1ccc(N=O)cc1
survivor count [5]: 5 of 6 and 6 of 6
survivor count [6]: 5 of 6
survivor count [7]: 0 of 6

NC(=O)N(CCCl)N=O
survivor count [5]: 6 of 6

CN=C(NC)c1ccc(NC(=O)c2ccc(C(=O)Nc3ccc(C(=NC)NC)cc3)c(Cl)c2)cc1
survivor count [11]: 6 of 6
survivor count (dose: 60.0 mg/kg/injection, schedule: Q01DX010 (ip), vehicle: saline): 5 of 6

S=P(N1CC1)(N1CC1)N1CC1
T/C (dose: 1.5 mg/kg/injection, schedule: Q01DX010 (ip), vehicle: saline): 125 % of control
T/C [3]: 137 % of control

O=c1[nH]cc(F)c(=O)[nH]1
T/C [8]: 144 % of control

CC(=O)N(C)C
survivor count [2]: 6 of 6
survivor count [1]: 6 of 6

N#[N+]c1cnc([O-])[nH]c1=O
T/C (dose: 2.5 mg/kg/injection, schedule: Q01DX010 (ip), vehicle: saline): 127 % of control
T/C [9]: 131 % of control [5 of 6 alive] (2×)
survivor count [10]: 0 of 6

CN=C(NC)c1ccc(NC(=O)Nc2ccc(NC(=O)Nc3ccc(C(=NC)NC)cc3)cc2)cc1
survivor count [15]: 1 of 6

CC(=O)Nc1ccc2nc3ccc(NC(C)=O)cc3[n+](-c3ccccc3)c2c1
survivor count [14]: 6 of 6
survivor count (dose: 62.5 mg/kg/injection, schedule: Q01DX010 (ip), vehicle: saline): 6 of 6
